For at least one entry, the source does not settle the construct or the ends of the probe. The comparison behind a weaker result is the experiment's own reference, which may not be listed here. At least one verdict was read from the data and is not stated in words by the source. Tags and fusion partners may be left off the protein sequences shown.
Molecular target: T1, SS_01 (engineered Phi29 DNA polymerase) M97K,A484E,K512Y (UniProt P03680)
T1 sequence (looked up, limits assumed): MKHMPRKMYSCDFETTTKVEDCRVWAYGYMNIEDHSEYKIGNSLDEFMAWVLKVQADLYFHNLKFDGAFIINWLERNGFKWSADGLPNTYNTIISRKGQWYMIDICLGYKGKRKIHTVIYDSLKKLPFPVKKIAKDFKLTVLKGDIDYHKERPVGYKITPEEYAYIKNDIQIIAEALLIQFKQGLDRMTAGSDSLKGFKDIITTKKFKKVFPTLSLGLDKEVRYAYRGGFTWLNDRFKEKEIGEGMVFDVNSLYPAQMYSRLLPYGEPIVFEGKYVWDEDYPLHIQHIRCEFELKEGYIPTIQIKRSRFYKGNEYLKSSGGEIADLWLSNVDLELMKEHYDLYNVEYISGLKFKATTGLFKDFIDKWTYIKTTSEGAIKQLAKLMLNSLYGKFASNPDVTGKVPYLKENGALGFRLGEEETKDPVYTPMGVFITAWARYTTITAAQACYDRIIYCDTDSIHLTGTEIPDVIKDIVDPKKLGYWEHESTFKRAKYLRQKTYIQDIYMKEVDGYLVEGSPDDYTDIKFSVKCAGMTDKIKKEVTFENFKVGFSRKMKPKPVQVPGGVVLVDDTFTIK
Assay: EMSA
Conditions: EMSA: 20 mM HEPES pH 7.5, 4 mM DTT, 1 mM metal chloride, 30 C 30 min, 100 nM DNA, 10 nM polymerase, recombinant protein, folded or branched DNA

Measured: binding result

TTTTTGCGCTCGAGATCTCCGTAAGGAGATCTCGAGCGCGGGACTACTACTGGGATCATCATAGCCACCTCAGCTGCACGTAAGTGCAGCTGAGGTGGC [Seq99A hairpin primed template]
binds more weakly: 1 mM Ca2+ | 1 mM Sr2+ | no divalent metal

Reference: paper PMC12732654, “Thermodynamic Profiling Reveals DNA Polymerase Template Binding, Substrate Incorporation, and Exonuclease Function”
